In PMC7221574 (Molecules, 2020):

Tests used:
Format in all cases: cell-based
BALB/3T3 = test: In vitro antiproliferative activity, SRB assay, normal fibroblasts BALB/3T3; settings: Mus musculus, normal murine embryonic fibroblasts, 72 h, mean ± SD
Description: (§1) The A549 cell line was purchased from the European Collection of Authenticated Cell Cultures (ECACC, Salisbury, UK). The MCF-7, LoVo and LoVo/DX cell lines was purchased from American Type Culture Collection (ATCC, Manassas, VA, USA). All the cell lines are maintained in the Institute of Immunology and Experimental Therapy (IIET), Wroclaw, Poland.
(§2) Human lung adenocarcinoma cell line was cultured in a mixture of OptiMEM and RPMI 1640 (1:1) medium (IIET, Wroclaw, Poland), supplemented with 5% fetal bovine serum HyClone (GE Healthcare, USA) and 2 mM L-glutamine (Sigma-Aldrich, Germany). Human breast adenocarcinoma cell line was cultured in a mixture of Eagle medium (IIET, Wroclaw, Poland), supplemented with 10% fetal bovine serum, 2 mM L-glutamine, 8 μg/mL insulin and 1% amino acids (Sigma-Aldrich, Germany). […]
(§3) After 72 h of incubation with the tested compounds, the cells were fixed in situ by gently adding of 50 μL per well of cold 50% trichloroacetic acid TCA (POCh, Poland) and were incubated at room temperature for one hour. […] Absorbance of each solution was read from a Synergy H4 Hybrid Multi-Mode Microplate Reader (BioTek Instruments, USA) at the 540 nm wavelength.

LoVo = test: In vitro antiproliferative activity, SRB assay, LoVo; settings: Homo sapiens, 72 h, human colon adenocarcinoma, mean ± SD
Description: as §1, §2, §3

MCF-7 = test: In vitro antiproliferative activity, SRB assay, MCF-7; settings: Homo sapiens, MCF7, 72 h, human breast adenocarcinoma, mean ± SD
Description: as §1, §2, §3

A549 = test: In vitro antiproliferative activity, SRB assay, A549; settings: Homo sapiens, A549, 72 h, human lung adenocarcinoma, mean ± SD
Description: as §1, §2, §3

COc1cc2c(c(OC)c1OC)-c1ccc(OC)c(=O)cc1[C@@H](NC(C)=O)CC2 [Compound 1, colchicine, reference compound]
IC50 (BALB/3T3): 115 ± 36.8 nM | IC50 (LoVo): 17.5 ± 2.5 nM | IC50 (MCF-7): 22.6 ± 1.3 nM | IC50 (A549): 115 ± 23.6 nM
